Assay results published in PMC10403576.
These are yes or no findings as the source states them, for the method shown. In cells and extracts the contact can be indirect. These calls come from enrichment with a bait or labelling near it, and not all partners need be listed.

Chains of the proteins cited; added tags and fusions are not shown. Residues count along the entry.
UniProt P09192, residues 2-330: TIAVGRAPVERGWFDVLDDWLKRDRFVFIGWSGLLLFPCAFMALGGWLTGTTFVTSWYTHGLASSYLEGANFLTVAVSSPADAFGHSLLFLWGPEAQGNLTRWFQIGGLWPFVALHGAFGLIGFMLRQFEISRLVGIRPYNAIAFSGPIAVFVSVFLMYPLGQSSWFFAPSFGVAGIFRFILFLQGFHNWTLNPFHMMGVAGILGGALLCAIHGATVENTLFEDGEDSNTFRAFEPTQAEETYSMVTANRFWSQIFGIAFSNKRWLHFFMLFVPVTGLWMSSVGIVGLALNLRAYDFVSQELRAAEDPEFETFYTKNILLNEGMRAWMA

B1: Ycf48 accessory factor (protein, UniProt P73069 29-342)
chain: CSHVPDLAFNPWQEIALETDSTFADIAFTEDPNHGWLVGTKETIFETTDGGDTWEQKLIDLGEEKASFSAVSFSGNEGWITGKPSILLHTTDGGQTWARIPLSEKLPGAPYSIIALGPQTAEMITDLGAIYKTTNGGKNWKALVEGAVGVARTIQRSTDGRYVAVSARGNFYSTWAPGQTEWTPHNRNSSRRLQTMGYGKDGQLWLLARGGQLQFSTDPDAEEWSDVIAPQDKGSWGLLDLSFRTPEEVWVAGASGNLLMSQDGGQTWAKDTGVEDIPANLYRVVFLSPEKGFVLGQDGILLKYNPSTEVAMVP
modifications: lipidation of the Ycf48-Cys29 N-terminal residue
B2: rubredoxin-like RubA protein (protein, UniProt P73068 1-115)
chain: MSERPPEKTLAELASPNHECRACGYVYIPSQGDQKTSVSPGTPFEALPLNWKCPVCGAPRNYFISTGETDAPSGFAENLNYGFGFNRMSGGKKNLLIFGSLFVIFLFFLSLYGMG
B3: PsaD subunit of PSI (protein, UniProt P19569 1-141)
chain: MTELSGQPPKFGGSTGGLLSKANREEKYAITWTSASEQVFEMPTGGAAIMNEGENLLYLARKEQCLALGTQLRTKFKPKIQDYKIYRVYPSGEVQYLHPADGVFPEKVNEGREAQGTKTRRIGQNPEPVTIKFSGKAPYEV
B4: PsaF subunit of PSI (protein, UniProt P29256 24-165)
chain: DDFANLTPCSENPAYLAKSKNFLNTTNDPNSGKIRAERYASALCGPEGYPHLIVDGRFTHAGDFLIPSILFLYIAGWIGWVGRSYLIEIRESKNPEMQEVVINVPLAIKKMLGGFLWPLAAVGEYTSGKLVMKDSEIPTSPR
B5: PsaL subunit of PSI (protein, UniProt P37277 1-157)
chain: MAESNQVVQAYNGDPFVGHLSTPISDSAFTRTFIGNLPAYRKGLSPILRGLEVGMAHGYFLIGPWTLLGPLRDSEYQYIGGLIGALALILVATAALSSYGLVTFQGEQGSGDTLQTADGWSQFAAGFFVGGMGGAFVAYFLLENLSVVDGIFRGLFN
B6: PsaK1 subunit of PSI (protein, UniProt P72712 1-86)
chain: MHSFLLATAVPATLSWSPKVAGVMIACNILAIAFGKLTIKQQNVGTPMPSSNFFGGFGLGAVLGTASFGHILGAGVILGLANMGVL
B7: PsaK2 subunit of PSI (protein, UniProt P74564 1-90)
chain: MFNTALLLAQASPTTAGWSLSVGIIMCLCNVFAFVIGYFAIQKTGKGKDLALPQLASKKTFGLPELLATMSFGHILGAGMVLGLASSGIL

Biological target: His-tagged D2 reaction center subunit of PSII (Synechocystis sp. PCC 6803) (UniProt P09192)
Test: affinity purification with mass spectrometry; His-tagged D2 complexes from thylakoid membranes of strain His-D2/ΔCP47 solubilised with 1.5% DM, Protino Ni-NTA agarose at 10 °C, then 10–30% sucrose gradient; the RCII/PSI fraction analysed by SDS-PAGE, immunoblotting and mass spectrometry

Row | Binder | binding
1 | B1 | binds
2 | B2 | binds
3 | B3 | binds
4 | B4 | binds
5 | B5 | binds
6 | B6 | binds
7 | B7 | binds
